The results in this text go back to US20220049017A1.

Sequences of proteins named here, by UniProt entry; tags and fusion partners are left off. A change or cut given only in a name is not applied to a line headed by its entry.
UniProt Q8NBP7: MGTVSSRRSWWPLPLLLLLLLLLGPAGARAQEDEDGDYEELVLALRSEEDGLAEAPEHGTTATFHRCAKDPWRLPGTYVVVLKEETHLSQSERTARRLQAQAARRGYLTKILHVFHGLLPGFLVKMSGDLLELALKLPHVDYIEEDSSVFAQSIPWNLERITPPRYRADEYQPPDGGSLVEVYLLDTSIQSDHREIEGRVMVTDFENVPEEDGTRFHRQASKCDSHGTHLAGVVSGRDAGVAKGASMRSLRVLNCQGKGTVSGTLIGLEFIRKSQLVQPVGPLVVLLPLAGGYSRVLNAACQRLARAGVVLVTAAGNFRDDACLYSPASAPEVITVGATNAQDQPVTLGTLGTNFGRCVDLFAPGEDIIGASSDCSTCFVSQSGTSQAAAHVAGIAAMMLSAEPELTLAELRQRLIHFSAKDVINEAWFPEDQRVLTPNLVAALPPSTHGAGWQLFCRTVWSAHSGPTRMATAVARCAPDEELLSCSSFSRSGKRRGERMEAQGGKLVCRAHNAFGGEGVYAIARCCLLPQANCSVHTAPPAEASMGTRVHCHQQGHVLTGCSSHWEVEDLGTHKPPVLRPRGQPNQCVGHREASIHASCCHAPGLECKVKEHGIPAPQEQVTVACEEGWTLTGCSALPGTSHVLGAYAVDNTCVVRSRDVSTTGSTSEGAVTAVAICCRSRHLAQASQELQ

These are yes or no findings as the source states them, for the method shown. Some results given as binding are weak or reduced against the parent protein; the word gives no strength.

The assay concerns the target human PCSK9 reference (human) (UniProt Q8NBP7). Description: ProteOn SPR.

B1: CL-274698 (antibody, V domains shown)
VH: QVQLQESGPGLVKPSGTLSLTCAVSGGSISSSKWWSWVRQPPGKGLEWIGETHYSGSTNYNPSLKSRVTISVDKSKNQFSLKLRSVTAADTAVYYCARVGATENFWGQGTLVTVSS
VL: EIVLTQSPATLSLSPGERATLSCRASQSVFRYLAWYQQKPGQAPRLLIYDASTRATDIPARFSGSGSGTDFTLTISSLEPEDFAVYYCQQRSNWPPTFGQGTKVEIK
For the molecule B1, the binding result is “binds”.

B2: CL-148219 QLT mutant (antibody, V domains shown)
VH: QVHLQESGPGLVKPSETLSLTCTVSGGSISSYYWSWIRQYPGKGLEWIGYISYSGSSNYNPSLKRRVTISRDTSKNQFSLQLTSVIAADTAVYYCARNLMIRGAYGMDVWGQGTTVTVSS
VL: DTVMTQSPLSLPVTPGEPASISCRSSQSLLHSNGYNYLDWYLQKAGQSPQLLIYLGSNRASGVPDRFSGSVSGTDFTLKISRVEAEDVGIYYCMQALQTPFTFGPGTKVDIK
In the case of B2, the binding result is “binds”.
